Experimental data published in patent US20140242609A1, “Diagnosis and treatment of kidney stones, methods and compositions therefor” (Washington University, priority 2013, published 2014).
Results are given in words; binding and its absence hold for the method and conditions named. For some assays here: In cells and extracts the contact can be indirect. Some entries that bind do so weakly or less than the wild type.

Experiments:
human CLDN16 (AF152101) [1] = target: T1, human CLDN16 (AF152101) (human, UniProt Q9Y5I7 1-235); assay: split-ubiquitin yeast 2-hybrid, figure legend
T1 sequence (looked up): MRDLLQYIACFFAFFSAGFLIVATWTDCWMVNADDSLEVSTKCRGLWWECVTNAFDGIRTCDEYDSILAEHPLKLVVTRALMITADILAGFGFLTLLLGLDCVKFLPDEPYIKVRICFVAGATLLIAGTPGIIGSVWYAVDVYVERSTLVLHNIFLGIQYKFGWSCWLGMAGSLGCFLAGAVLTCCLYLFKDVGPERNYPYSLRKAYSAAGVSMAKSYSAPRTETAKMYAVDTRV

[2] = target: mouse CLDN14 (AF314089) (mouse) (UniProt Q9Z0S3); assay: split-ubiquitin yeast 2-hybrid
human CLDN16 (AF152101) [3] = target: T1, human CLDN16 (AF152101); assay: co-immunoprecipitation, doubly transfected HEK293 cells
human CLDN16 (AF152101) [4] = target: T1, human CLDN16 (AF152101); assay: split-ubiquitin yeast 2-hybrid, yeast NMY51
[5] = target: mouse CLDN14 (AF314089) (mouse) (UniProt Q9Z0S3); assay: split-ubiquitin yeast 2-hybrid, reporters HIS3, lacZ, ADE2, yeast NMY51

Measured: binding

B1: mouse CLDN14 (AF314089) (other, UniProt Q9Z0S3 1-239, looked up)
chain: MASTAVQLLGFLLSFLGMVGTLITTILPHWRRTAHVGTNILTAVSYLKGLWMECVWHSTGIYQCQIYRSLLALPRDLQAARALMVISCLLSGMACACAVVGMKCTRCAKGTPAKTTFAVLGGALFLLAGLLCMVAVSWTTNDVVQNFYNPLLPSGMKFEIGQALYLGFISSSLSLIGGTLLCLSCQDEAPYRPYPPQSRAGATTTATAPAYRPPAAYKDNRAPSVTSAAHSGYRLNDYV
binds: all assays above
